This passage reports binding results from article PMC7140434.

The target in assay [1] is T1, APEX2-emerin (UniProt P50402).
T1 sequence: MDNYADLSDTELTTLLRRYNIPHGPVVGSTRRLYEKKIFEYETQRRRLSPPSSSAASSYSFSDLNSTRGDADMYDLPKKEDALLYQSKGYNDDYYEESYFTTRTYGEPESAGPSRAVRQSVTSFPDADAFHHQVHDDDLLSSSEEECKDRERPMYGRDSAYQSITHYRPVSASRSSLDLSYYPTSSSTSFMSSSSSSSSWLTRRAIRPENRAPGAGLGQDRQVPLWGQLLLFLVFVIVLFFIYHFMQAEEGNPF
In words: proximity labelling; standard APEX2 approach: HeLa cells transfected with APEX2-emerin or GFP-APEX2; 500 µM biotin-phenol 30 min, 1 mM H2O2 1 min at room temperature; RIPA lysate bound to Neutravidin beads; bound fraction analysed by immunoblotting. For orientation: Immunoblotting shows a protein as a band on a membrane.

The target in assay [2] is T1, APEX2-emerin. Briefly: proximity labelling; standard APEX2 approach: HeLa cells transfected with APEX2-emerin or GFP-APEX2, compared by SILAC (forward and reverse); Neutravidin eluates analysed by quantitative mass spectrometry.
Assay [3] deals with T2, APEX2-emerin, P50402.
T2 chain: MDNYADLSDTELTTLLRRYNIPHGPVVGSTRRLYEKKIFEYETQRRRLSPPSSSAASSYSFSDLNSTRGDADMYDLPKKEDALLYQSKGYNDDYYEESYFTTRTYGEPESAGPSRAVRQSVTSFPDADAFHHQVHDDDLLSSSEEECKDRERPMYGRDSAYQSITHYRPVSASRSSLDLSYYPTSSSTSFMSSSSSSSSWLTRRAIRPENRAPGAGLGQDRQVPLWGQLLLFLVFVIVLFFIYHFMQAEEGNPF
In words: proximity labelling; standard APEX2 approach: HeLa cells transfected with APEX2-emerin or GFP-APEX2; 500 µM biotin-phenol 30 min, 1 mM H2O2 1 min at room temperature; RIPA lysate bound to Neutravidin beads; bound fraction analysed by immunoblotting. As to conditions: remark: other sources report otherwise.

No constants are given. Whether binding was seen depends on the method and setting. Binding seen in cells or lysates may run through a third protein. A yes stands for co-enrichment or nearness to the bait. Other partners may have been found.

In the case of lamin A (from UniProt P02545 1-646), the binding result in assay [1] and in assay [2] was “binds” each time.

B1: lamin C, P02545-2 1-572 (protein)
chain: METPSQRRATRSGAQASSTPLSPTRITRLQEKEDLQELNDRLAVYIDRVRSLETENAGLRLRITESEEVVSREVSGIKAAYEAELGDARKTLDSVAKERARLQLELSKVREEFKELKARNTKKEGDLIAAQARLKDLEALLNSKEAALSTALSEKRTLEGELHDLRGQVAKLEAALGEAKKQLQDEMLRRVDAENRLQTMKEELDFQKNIYSEELRETKRRHETRLVEIDNGKQREFESRLADALQELRAQHEDQVEQYKKELEKTYSAKLDNARQSAERNSNLVGAAHEELQQSRIRIDSLSAQLSQLQKQLAAKEAKLRDLEDSLARERDTSRRLLAEKEREMAEMRARMQQQLDEYQELLDIKLALDMEIHAYRKLLEGEEERLRLSPSPTSQRSRGRASSHSSQTQGGGSVTKKRKLESTESRSSFSQHARTSGRVAVEEVDEEGKFVRLRNKSNEDQSMGNWQIKRQNGDDPLLTYRFPPKFTLKAGQVVTIWAAGAGATHSPPTDLVWKAQNTWGCGNSLRTALINSTGEEVAMRKLVRSVTVVEDDEDEDGDDLLHHHHVSGSRR
In the case of B1, the binding result in assay [3] is reported as “binds”.
